Assay results from paper PMC5114622, “In vivo protein interaction network analysis reveals porin-localized antibiotic inactivation in Acinetobacter baumannii strain AB5075” (Nature Communications, 2016).
These are yes or no findings as the source states them, for the method shown. In cells and extracts the contact can be indirect. Some results given as binding are weak or reduced against the parent protein; the word gives no strength.

Protein sequences, listed by entry. Tags and fused reporters are not part of them. Residues count along the entry.
UniProt Q9L4P2, residues 18-273: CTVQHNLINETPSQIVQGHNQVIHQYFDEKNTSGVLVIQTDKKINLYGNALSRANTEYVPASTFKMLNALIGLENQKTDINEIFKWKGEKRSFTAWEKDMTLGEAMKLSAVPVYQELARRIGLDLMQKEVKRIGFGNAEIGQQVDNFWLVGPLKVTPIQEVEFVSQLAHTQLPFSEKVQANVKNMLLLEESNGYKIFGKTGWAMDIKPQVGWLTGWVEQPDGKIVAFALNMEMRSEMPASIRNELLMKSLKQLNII

Target: β-lactamase Oxa-23 (Acinetobacter baumannii AB5075 (endogenous in AB5075 cells)) (UniProt Q9L4P2)
Experiment: cross-linking; in vivo cross-linking of intact A. baumannii AB5075 cells with the PIR cross-linker BDP-NHP (500 mM Na2HPO4 pH 7.4, 150 mM NaCl, room temperature), trypsin digest, avidin enrichment, LC-MS (ReACT); cross-linked peptide pairs identified

## β-lactamase Oxa-23 (from UniProt Q9L4P2 18-273) (enzyme)
  binding: binds
